Results deposited as PubChem BioAssay AID1259308 (NCATS, 2017)
The deposit covers about 59,000 reagents; below is an unselected part. About 1,510 of all reagents (2.6%) were called active. 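Calls use total luciferase alone and ignore viability, so some active siRNAs may act by altering cell number.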 Reagent sequences are not shown.

- Aim: 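Knock-downs that increase output of a recombinant reporter protein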 (primary screen)
- Cell system: human HEK293 embryonic kidney cells stably expressing firefly luciferase (HEK-CMV-Luc2-Hygro)
- Knock-down reagent: single siRNA against human genes, 0.8 pmol siRNA per well
- Time to read-out: 72 h
- Measurement: 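Reporter luminescence and viable-cell signal on separate replicate plates, given as percent of non-targeting control and median/MAD z-scores, plus per-cell luciferase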
- Direction: total luciferase, z-score and total luciferase, % of control: higher = more reporter protein produced; luciferase per cell, z-score: higher = more reporter output per viable cell; viable cells, % of control: higher = more viable cells
- Rule for the call: 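An siRNA counts as active if its total luciferase robust z-score exceeds 3; genes with two or more such siRNAs out of three were retested with fresh siRNAs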
- Meaning of the calls: active = raised luciferase; inactive = no rise

Gene | PubChem SID | total luciferase, z-score | total luciferase, % of control | luciferase per cell, z-score | viable cells, % of control | Call
PLEKHA5 | SID160741762 | 0.22 | 86.3 | 0.0858 | 94.2 | inactive
PLEKHA5 | SID160741764 | -0.447 | 73 | -0.898 | 103 | inactive
PLEKHA5 | SID160741765 | 0.307 | 88 | -0.206 | 104 | inactive
TM2D3 | SID160750222 | -0.419 | 73.6 | 0.164 | 78.7 | inactive
TM2D3 | SID160750224 | -1.52 | 51.6 | 0.607 | 49.1 | inactive
TM2D3 | SID160750225 | -1.28 | 56.5 | 0.706 | 52.4 | inactive
MZB1 | SID160740382 | 2.58 | 133 | 1.32 | 105 | inactive
MZB1 | SID160740383 | -0.486 | 72.2 | 0.62 | 68.5 | inactive
MZB1 | SID160740384 | -0.0912 | 80.1 | -0.525 | 103 | inactive
ZBTB25 | SID160719087 | 0.413 | 90.1 | 0.537 | 87.4 | inactive
ZBTB25 | SID160719088 | 0.0938 | 83.8 | -0.0769 | 95.5 | inactive
ZBTB25 | SID160719089 | 0.0255 | 82.4 | -0.376 | 102 | inactive
PGAM1 | SID160714195 | -0.578 | 70.4 | -0.524 | 90.3 | inactive
PGAM1 | SID160714196 | 0.0769 | 83.4 | -0.171 | 97.5 | inactive
PGAM1 | SID160714197 | -1.3 | 56.1 | -0.404 | 69.7 | inactive
B4GALT1 | SID160770658 | -0.558 | 70.8 | -0.627 | 93.3 | inactive
B4GALT1 | SID160770666 | 0.0522 | 82.9 | 0.522 | 80.8 | inactive
B4GALT1 | SID160770672 | -1.22 | 57.5 | -0.313 | 69.8 | inactive
FAM177B | SID160767060 | 0.368 | 89.2 | 0.29 | 92.3 | inactive
FAM177B | SID160767061 | 2.47 | 131 | 3.09 | 64.9 | inactive
FAM177B | SID160767062 | -1.1 | 59.9 | -1.03 | 87.7 | inactive
PCDHB12 | SID160744814 | -0.563 | 70.7 | -1.04 | 104 | inactive
PCDHB12 | SID160744815 | -0.541 | 71.1 | -0.788 | 97.8 | inactive
PCDHB12 | SID160744816 | -0.0514 | 80.9 | 0.0849 | 88.4 | inactive

Reprinted from the entries so far, 2 entries:
Gene | PubChem SID | total luciferase, z-score | total luciferase, % of control | luciferase per cell, z-score | viable cells, % of control | Call
MZB1 | SID160740382 | 2.58 | 133 | 1.32 | 105 | inactive
MZB1 | SID160740383 | -0.486 | 72.2 | 0.62 | 68.5 | inactive
